Test results: PubChem BioAssay AID504467 (National Center for Advancing Translational Sciences (NCATS), 2011)
About 7,700 (2.3%) of roughly 330,000 compounds were called active. The shares of active, inactive and inconclusive entries below differ from those in the screen. Calls follow the shape of the dose curve; as a rule, active = well fitted inhibition curve with a large enough effect; inconclusive = small, poorly fitted or top-dose-only effect, or effect the other way; inactive = flat fitted curve, though single readings scatter. A potency beside an inconclusive call is a rough fit, not a confirmed value.
% is scaled to controls: 0 for no effect and ±100 for the full control effect; potency is read from the fitted curve at half-maximal effect.

Assay: qHTS screen for small molecules that inhibit ELG1-dependent DNA repair in human embryonic kidney (HEK293T) cells expressing luciferase-tagged ELG1; also: nearly all actives have a fitted effect of over 55% in size
Details: HEK293T ELG1-luciferase reporter, luminescence, 16 h, DNA damage induced by 5-fluorouridine; activity change, negative = inhibition: at 46.1 µM (top of the series)
Procedure, shortened: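 Cells (2,000 per well) received 5-fluorouridine plus test compound or DMSO and were incubated 16 hr at 37 °C, 5% CO2. Luciferase activity was read by luminescence 30 min after ONE-Glo addition; signal suppression marked inhibition of damage-induced ELG1 function.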
In the case of `Cc1cc(C)nc(N2CCCC(C(=O)NCC(c3ccccc3)c3ccccc3)C2)n1` (stereo unspecified), the Potency is reported as active: 23.1 µM.
For `CCCC(=O)c1ccc(N2CCN(C(=O)c3ccccc3)CC2)c(F)c1`, the Potency was inconclusive: 29.1 µM [inhibitor, partial curve, poor fit].
For `Cc1ccc(NC(=O)C2COc3ccccc3O2)cc1S(=O)(=O)N1CCCCC1` (stereo unspecified), the Potency was inconclusive: 18.3 µM [inhibitor, single point].
With `CCN(CC)CCCNc1oc(-c2cccc(Cl)c2)nc1C#N` the “activity change, negative = inhibition” value was inactive: 23.7%.
With `Cc1ccc(CCNC(=O)C23CN(Cc4ccccc4)CC2C(c2ccc([N+](=O)[O-])cc2)=NO3)cc1` (stereo unspecified) the Potency was inconclusive: 18.4 µM [inhibitor, single point].
In the case of `Cc1ccc(Cn2nnc3c(=O)[nH]c(C4CCN(C(=O)Cc5cccs5)CC4)nc32)cc1`, the “activity change, negative = inhibition” value is reported as inactive: -2.39%.
In the case of `COc1ccc(C)cc1NC(=O)n1ncc2cc(Cl)ccc21`, the “activity change, negative = inhibition” value is reported as inactive: -7.15%.
For `Cc1cc2occ(CC(=O)N(C)CC(=O)Nc3c(C)cccc3C)c2cc1C`, the Potency was inconclusive: 29.1 µM [inhibitor, single point].
With `Cc1cc(NC(=O)CN2CCC(n3nnc4cc(C(F)(F)F)ccc43)CC2)no1` the Potency was inconclusive: 16.4 µM [inhibitor, partial curve, poor fit].
For `CCN(CC)S(=O)(=O)c1ccc(N2CCCC2)c(NC(=O)Cc2ccc(OC)cc2)c1`, the “activity change, negative = inhibition” value was inactive: -26.1%.
For `Cc1ccc2cc(/C=N/NC(=O)[C@H](C)NC(=O)OC(C)(C)C)c(Cl)nc2c1`, the “activity change, negative = inhibition” value was inactive: 18.8%.
In the case of `CCOC(=O)Cc1csc(NC(=O)NC2(C(F)(F)F)Oc3ccccc3O2)n1`, the Potency is reported as inconclusive: 16.4 µM [inhibitor, single point].
With `O=[N+]([O-])c1cccc(-c2cc3cccc[n+]3cc2-c2cccc([N+](=O)[O-])c2)c1` the “activity change, negative = inhibition” value was inactive: -11%.
For `COCCN(C(=O)c1csnn1)C(C(=O)NC1CCCC1)c1ccccc1F` (stereo unspecified), the “activity change, negative = inhibition” value was inactive: -0.259%.
In the case of `O=C(CSc1nc2c(c(C(F)(F)F)n1)CCc1ccccc1-2)NCc1ccc(F)cc1`, the Potency is reported as inconclusive: 16.4 µM [activator, partial curve, poor fit].
With `CCN1CCN(c2ccc(S(=O)(=O)N3CCCCC3)cc2NC(=O)/C=C/c2ccc(OC)c(OC)c2)CC1` the “activity change, negative = inhibition” value was inactive: -4.46%.
In the case of `COc1cc(/C=C(\C#N)c2nc3ccccc3[nH]2)cc(Br)c1OCc1ccccc1`, the Potency is reported as inconclusive: 20.6 µM [inhibitor, single point].
In the case of `O=C(Nc1cccs1)Nc1ccccc1Br`, the Potency is reported as inconclusive: 16.4 µM [inhibitor, partial curve].
In the case of `Cc1ccc(CCC(=O)Nc2ccccc2C(=O)O)o1`, the Potency is reported as inconclusive: 29.1 µM [activator, single point].
For `Cn1c(=O)c2cc(S(=O)(=O)N3CCOCC3)ccc2n(C)c1=O`, the “activity change, negative = inhibition” value was inactive: -24.1%.
For `Cc1ccc(CNC(=O)CN2c3cccc4cccc(c34)S2(=O)=O)cc1`, the “activity change, negative = inhibition” value was inactive: -17.5%.
In the case of `c1csc(-c2csc3ncnc(NCCCN4CCOCC4)c23)c1`, the Potency is reported as inconclusive: 14.6 µM [inhibitor, partial curve].
With `O=C(Nc1cccnc1)C1=NN(C2CCS(=O)(=O)C2)C(=O)CC1` (stereo unspecified) the Potency was inconclusive: 32.6 µM [inhibitor, partial curve, poor fit].
For `N#CCSc1nc2ccccc2c2nc3ccccc3n12`, the Potency was active: 20.6 µM.
For `O=C(OCc1ccc(F)cc1)c1cc(S(=O)(=O)N2CCCCC2)ccc1N1CCOCC1`, the “activity change, negative = inhibition” value was inactive: -5.35%.
For `COc1ccc(C2(C)NC(=O)N(CC(=O)Nc3ccc4c(c3)CCC4)C2=O)cc1OC` (stereo unspecified), the “activity change, negative = inhibition” value was inactive: -14%.
With `S=c1[nH]c2ccc3ccccc3c2[nH]1` the Potency was inconclusive: 23.1 µM [activator, single point].
With `CCn1cc(Br)c(C(=O)Nc2sc3c(c2C(N)=O)CCCC3)n1` the Potency was inconclusive: 14.6 µM [activator, partial curve, poor fit].
With `CCn1cc(S(=O)(=O)c2ccc(C)cc2)[nH]c1=O` the Potency was inconclusive: 20.6 µM [activator, partial curve].
For `CCNC(=S)N/N=C1\C(=O)c2cccc3cccc1c23`, the “activity change, negative = inhibition” value was inactive: 3.23%.
For `Cc1ccc(CNC(=O)C2CCCCC2C(=O)O)cc1` (stereo unspecified), the “activity change, negative = inhibition” value was inactive: -4.76%.
For `CN1CCN(c2ccc(NC(=O)COc3ccccc3)cc2Cl)CC1`, the Potency was inconclusive: 4.61 µM [activator, full curve].
With `C/C(=N\NC(=O)C1CC1)c1ccccc1Br` the “activity change, negative = inhibition” value was inactive: 6.82%.
With `Cc1ccc(C(=O)C2Oc3ccccc3C3CC(c4ccc(C)cc4)=NN23)cc1` (stereo unspecified) the Potency was inconclusive: 16.4 µM [activator, single point].
For `CCCC(C)NC(=S)NC(=O)c1cc(S(=O)(=O)N2CCOCC2)ccc1C` (stereo unspecified), the Potency was inconclusive: 20.6 µM [inhibitor, single point].
In the case of `COC(=O)c1cc(-c2ccc(Cl)cc2Cl)n[nH]1`, the Potency is reported as inconclusive: 14.6 µM [activator, partial curve].
In the case of `O=S(=O)(c1ccccc1)c1nnn2c1nc(NC1CCN(Cc3ccccc3)CC1)c1cc(Cl)ccc12`, the “activity change, negative = inhibition” value is reported as inactive: 7.48%.
In the case of `CCCCN(CCCC)C(=O)C1(P(=O)(c2ccccc2)c2ccccc2)CCC1`, the “activity change, negative = inhibition” value is reported as inactive: -5.21%.
With `S=C(NCc1cccnc1)Nc1ccc(Cl)cc1Cl` the Potency was inconclusive: 29.1 µM [inhibitor, partial curve, poor fit].
With `Cc1nn(C(=O)c2ccoc2C)c(N)c1-c1ccccc1` the Potency was inconclusive: 4.11 µM [activator, full curve].
For `c1ccc(C[C@H]2CN=C(Nc3ccccc3)N2CCCC2CCCCC2)cc1`, the “activity change, negative = inhibition” value was inactive: 15.8%.
In the case of `CN1CCN(c2ccc(NC(=O)COc3ccc4ccccc4c3)cc2)CC1`, the Potency is reported as inconclusive: 25.9 µM [activator, partial curve, poor fit].
For `O=c1c2c(nc3cc(-c4ccccc4)[nH]n13)CCC2`, the Potency was inconclusive: 4.11 µM [activator, partial curve].
With `Cn1cc(S(=O)(=O)Nc2ccc(Oc3ccccc3)cc2)c(=O)n(C)c1=O` the Potency was inconclusive: 18.3 µM [activator, partial curve, poor fit].
In the case of `O=C1COc2ccc(C(=O)CCl)cc2N1`, the Potency is reported as inconclusive: 14.6 µM [activator, partial curve].
For `COc1ccc(-c2oc3cccnc3c2/C=C/c2ccc(OC)c(OC)c2)cc1`, the Potency was inconclusive: 23.1 µM [inhibitor, single point].
With `O=C(NCCc1ccccn1)c1ccc2nc(Cc3ccccc3F)oc2c1` the Potency was inconclusive: 14.6 µM [activator, partial curve].
For `CC(C)CNC(=O)c1cc(-c2ccc(Cl)c(Cl)c2)on1`, the Potency was inconclusive: 25.9 µM [activator, single point].
In the case of `Cc1cc(C)c(OCC(=O)Nc2ccccn2)c([N+](=O)[O-])c1`, the Potency is reported as inconclusive: 20.6 µM [activator, partial curve, poor fit].
With `NS(=O)(=O)c1ccc(N/N=C/c2ccccc2Br)cc1` the Potency was inconclusive: 14.6 µM [activator, partial curve].
For `CC(=O)c1ccc(S(=O)(=O)N2CCN(C(=O)CSc3ccc(C)c(C)c3)CC2)cc1`, the Potency was inconclusive: 9.2 µM [inhibitor, partial curve].
For `O=C(N/C=N/OCc1ccc(Cl)cc1Cl)NOCc1ncc(C(F)(F)F)cc1Cl`, the Potency was inconclusive: 13 µM [inhibitor, partial curve, poor fit].
For `CC(=O)c1ccc(OCCCC(=O)Nc2ccc3c(c2)OCCO3)cc1`, the Potency was inconclusive: 20.6 µM [activator, single point].
With `CC(C)c1ccc(NC(=O)[C@H]2CSCN2C(=O)[C@@H]2CCC(=O)N2)cc1` the “activity change, negative = inhibition” value was inactive: 15.9%.
For `OC(c1ccc(F)cc1)(C1CCCCC1)C(CN1CCOCC1)c1ccccc1` (stereo unspecified), the “activity change, negative = inhibition” value was inactive: -24.6%.
With `CC1(C)CC(NC(=S)Nc2ccc(S(N)(=O)=O)cc2)CC(C)(C)N1` the “activity change, negative = inhibition” value was inactive: -0.118%.
For `CCn1nc(NC(C)=O)c2cc3cccc(C)c3nc21`, the “activity change, negative = inhibition” value was inactive: -4.31%.
With `N#CCCn1cc(/C=N/NC(=O)c2ccncc2)c(-c2ccc(F)cc2)n1` the Potency was inconclusive: 18.4 µM [activator, partial curve, poor fit].
In the case of `Fc1ccccc1NC(=S)N1CCC(c2ccccc2)C1` (stereo unspecified), the Potency is reported as inconclusive: 20.6 µM [activator, partial curve].
For `CCC(C)NCCCCOc1ccc(C)cc1[N+](=O)[O-]` (stereo unspecified), the “activity change, negative = inhibition” value was inactive: 4.59%.
With `COc1ccccc1NS(=O)(=O)c1cc(NC(=O)C(C)C)ccc1N1CCCCC1` the “activity change, negative = inhibition” value was inactive: -28.4%.
For `CCN1C=C(Cc2cccs2)C2=C(C1)C(c1cccs1)C(C#N)=C(N)O2` (stereo unspecified), the Potency was inconclusive: 23.1 µM [inhibitor, single point].
In the case of `O=C(O)CSc1nc(-c2ccccc2)cc(=O)[nH]1`, the Potency is reported as inconclusive: 1.3 µM [inhibitor, single point].
In the case of `C=CCSc1nccc(-c2nn(-c3ccc(C)cc3)ccc2=O)n1`, the Potency is reported as active: 7.31 µM.
For `CCOC(=O)c1cc2c(=O)n3ccccc3nc2n(CC2CCCO2)c1=NC(=O)/C=C/c1ccccc1` (stereo unspecified), the Potency was inconclusive: 23.1 µM [inhibitor, single point].
In the case of `COC(=O)c1ccc(-c2ccc([C@H]3[C@H]4C=CC[C@@H](C)[C@@H]4C(=O)N3Cc3ccccc3)c(F)c2)cc1`, the “activity change, negative = inhibition” value is reported as inactive: -23%.
With `CCn1c(SCC(=O)N(C(C)C)C(C)C)nnc1-c1cc2ccccc2cc1O` the Potency was inconclusive: 20.6 µM [inhibitor, single point].
For `CC(C)CSC1=NSC2=NC(=O)/C(=C\c3coc4ccccc4c3=O)C(=N)N12`, the “activity change, negative = inhibition” value was inactive: -1.18%.
With `CCOC(=O)c1cnc(SCc2nc(N)nc(Nc3ccccc3)n2)nc1N` the Potency was inconclusive: 16.4 µM [inhibitor, partial curve, poor fit].
For `Cc1csc(SCC(=O)Nc2sccc2C(N)=O)n1`, the Potency was inconclusive: 16.4 µM [activator, partial curve].
For `O=C(Nc1ccc2c(c1)OCCO2)c1ccc(CN2CCOCC2)cc1`, the Potency was inconclusive: 3.66 µM [activator, partial curve, poor fit].
